Results deposited as PubChem BioAssay AID1259405 (NCATS, 2018)
Aim: 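Knock-downs that lift recombinant protein yield in hamster ovary cells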 (primary screen). Cell system: Chinese hamster CHO-K1 ovary cells with stable secreted eGFP expression. Knock-down reagent: single siRNA against mouse genes, 0.8 pmol siRNA per well (2 µl of 400 nM stock). Timing: 3 days. Detection: 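Per-well intracellular GFP measured by laser scanning cytometry, plus viability from ATP luminescence, each relative to plate median of non-targeting control wells, in %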. Scale: GFP, % of control: higher = more GFP per well, higher productivity; viability (ATP), % of control: higher = more viable cells (more ATP). Active means: 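Called active when intracellular GFP, relative to negative control, is at or above 120%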.
Here is an unselected part of about 50,000 deposited reagents. Over the whole deposit, about 4,000 (8%) got an active call. 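Mouse siRNA library applied to hamster cells; one well for each siRNA.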 Unmarked entries are inactive. Reagents against one gene are numbered here.

How did the screen score Mei4 (meiotic double-stranded break formation protein 4) #1?
GFP, % of control: 62.7; viability (ATP), % of control: 71.8

Which result is listed for Mei4 (meiotic double-stranded break formation protein 4) #2?
GFP, % of control: 58.6; viability (ATP), % of control: 74.1

What is on record for Mei4 (meiotic double-stranded break formation protein 4) #3?
GFP, % of control: 58.7; viability (ATP), % of control: 76.8

With Agpat5 (1-acylglycerol-3-phosphate O-acyltransferase 5) #1, how do the results read?
GFP, % of control: 97.6; viability (ATP), % of control: 90.6

With Agpat5 (1-acylglycerol-3-phosphate O-acyltransferase 5) #2, what was measured?
GFP, % of control: 44.6; viability (ATP), % of control: 90.7

For Agpat5 (1-acylglycerol-3-phosphate O-acyltransferase 5) #3, what does the deposit list?
GFP, % of control: 73.1; viability (ATP), % of control: 90.8

For Ppp1r3c (protein phosphatase 1, regulatory subunit 3C) #1, how do the results read?
GFP, % of control: 120 (active); viability (ATP), % of control: 122

What is on record for Ppp1r3c (protein phosphatase 1, regulatory subunit 3C) #2?
GFP, % of control: 106; viability (ATP), % of control: 78.1

What did the screen give for Ppp1r3c (protein phosphatase 1, regulatory subunit 3C) #3?
GFP, % of control: 85; viability (ATP), % of control: 82.5

What is on record for Ddx31 (DEAD/H box helicase 31) #1?
GFP, % of control: 61.1; viability (ATP), % of control: 66.7

Which result is listed for Ddx31 (DEAD/H box helicase 31) #2?
GFP, % of control: 120; viability (ATP), % of control: 74.1

With Ddx31 (DEAD/H box helicase 31) #3, how do the results read?
GFP, % of control: 105; viability (ATP), % of control: 77.9

For Pno1 (partner of NOB1 homolog) #1, how do the results read?
GFP, % of control: 148 (active); viability (ATP), % of control: 93.1

With Pno1 (partner of NOB1 homolog) #2, what does the deposit list?
GFP, % of control: 79.6; viability (ATP), % of control: 58.2

With Pno1 (partner of NOB1 homolog) #3, what does the deposit list?
GFP, % of control: 92.7; viability (ATP), % of control: 91.6

How did the screen score Map3k11 (mitogen-activated protein kinase kinase kinase 11)?
GFP, % of control: 98.7; viability (ATP), % of control: 88.4

With H2-T13 (histocompatibility 2, T region locus 13) #1, how do the results read?
GFP, % of control: 42.8; viability (ATP), % of control: 49.2

What is on record for H2-T13 (histocompatibility 2, T region locus 13) #2?
GFP, % of control: 45.3; viability (ATP), % of control: 53.1

How did the screen score H2-T13 (histocompatibility 2, T region locus 13) #3?
GFP, % of control: 96.3; viability (ATP), % of control: 87.7

For Cbfb (core binding factor beta) #1, how do the results read?
GFP, % of control: 7.51; viability (ATP), % of control: 5.13

For Cbfb (core binding factor beta) #2, what does the deposit list?
GFP, % of control: 48.2; viability (ATP), % of control: 48.1

With Cbfb (core binding factor beta) #3, how do the results read?
GFP, % of control: 96.2; viability (ATP), % of control: 113

What is on record for Zfp84 (zinc finger protein 84) #1?
GFP, % of control: 88.4; viability (ATP), % of control: 92.1

For Zfp84 (zinc finger protein 84) #2, how do the results read?
GFP, % of control: 91.4; viability (ATP), % of control: 75

For Eprs1 (glutamyl-prolyl-tRNA synthetase 1) #1, how do the results read?
GFP, % of control: 121 (active); viability (ATP), % of control: 98.1

What did the screen give for Eprs1 (glutamyl-prolyl-tRNA synthetase 1) #2?
GFP, % of control: 76.7; viability (ATP), % of control: 80.3

With Eprs1 (glutamyl-prolyl-tRNA synthetase 1) #3, what was measured?
GFP, % of control: 79.9; viability (ATP), % of control: 133

What did the screen give for Or5b118 (olfactory receptor family 5 subfamily B member 118) #1?
GFP, % of control: 50.2; viability (ATP), % of control: 73.4

With Or5b118 (olfactory receptor family 5 subfamily B member 118) #2, what was measured?
GFP, % of control: 65.9; viability (ATP), % of control: 84.9

With Or5b118 (olfactory receptor family 5 subfamily B member 118) #3, how do the results read?
GFP, % of control: 55.3; viability (ATP), % of control: 51.4

What did the screen give for Insm1 (insulinoma-associated 1) #1?
GFP, % of control: 68.6; viability (ATP), % of control: 72.8

With Insm1 (insulinoma-associated 1) #2, what does the deposit list?
GFP, % of control: 84.1; viability (ATP), % of control: 79.5

Which result is listed for Insm1 (insulinoma-associated 1) #3?
GFP, % of control: 131 (active); viability (ATP), % of control: 111

With A430057M04Rik (RIKEN cDNA A430057M04 gene) #1, what was measured?
GFP, % of control: 56.5; viability (ATP), % of control: 62.2

With A430057M04Rik (RIKEN cDNA A430057M04 gene) #2, what does the deposit list?
GFP, % of control: 99.6; viability (ATP), % of control: 80.4

How did the screen score A430057M04Rik (RIKEN cDNA A430057M04 gene) #3?
GFP, % of control: 70.7; viability (ATP), % of control: 92.6

What did the screen give for Tcf15 (transcription factor 15) #1?
GFP, % of control: 98.2; viability (ATP), % of control: 89.6

For Tcf15 (transcription factor 15) #2, how do the results read?
GFP, % of control: 80.4; viability (ATP), % of control: 84.6

For Tcf15 (transcription factor 15) #3, what was measured?
GFP, % of control: 77.8; viability (ATP), % of control: 110

With Vps35 (VPS35 retromer complex component) #1, how do the results read?
GFP, % of control: 77.4; viability (ATP), % of control: 95

Which result is listed for Vps35 (VPS35 retromer complex component) #2?
GFP, % of control: 67.4; viability (ATP), % of control: 95

Not a retest: 7 of the entries above.
Insm1 (insulinoma-associated 1) #1: GFP, % of control = 68.6; viability (ATP), % of control = 72.8
Insm1 (insulinoma-associated 1) #2: GFP, % of control = 84.1; viability (ATP), % of control = 79.5
Insm1 (insulinoma-associated 1) #3: GFP, % of control = 131 (active); viability (ATP), % of control = 111
A430057M04Rik (RIKEN cDNA A430057M04 gene) #1: GFP, % of control = 56.5; viability (ATP), % of control = 62.2
A430057M04Rik (RIKEN cDNA A430057M04 gene) #2: GFP, % of control = 99.6; viability (ATP), % of control = 80.4
A430057M04Rik (RIKEN cDNA A430057M04 gene) #3: GFP, % of control = 70.7; viability (ATP), % of control = 92.6
Tcf15 (transcription factor 15) #1: GFP, % of control = 98.2; viability (ATP), % of control = 89.6
